Data as given in patent US20130028895A1, “EXOSOME INHIBITING AGENTS AND USES THEREOF” (priority 2011, published 2013).
Entries after “also recorded” stand apart in the source; their conditions may differ. For at least one compound, name, drawing or mass did not settle the structure.

Assays:
ABCA3 = ABCA3 expression by qRT/PCR after exposure to inhibitors; type: cell-based, human; conditions: 48 h, Su-DHL-4
OCI-Ly1 lymphoma cells = assay: Inhibition of exosome shedding by inhibitors (AChE activity, flotillin-2 Western blot); type: cell-based, human; conditions: non-toxic dose ranges, 24 h
Method: (§1) […] lymphoma cells were exposed to inhibitors of exosome synthesis or release at non-toxic dose ranges. Exosomes were harvested after a 24 h incubation period, and yields were measured by AChE activity (a) and detection of flotillin-2 by Western Blot (b). […] Significant differences to controls without inhibitors (one-way ANOVA with Dunn's post test) are marked with asterices, equivalent results were obtained for the cell lines Balm-3 and Su-DHL-4 (FIG. 10).
5×10^7 lymphoma cells were exposed to inhibitors of exosome synthesis or release at non-toxic dose ranges. Exosomes were harvested after a 24 h incubation period, and yields were measured by AChE activity. Significant differences to controls without inhibitors (one-way ANOVA) are marked with asterices.
Exosomes were prepared by differential centrifugation according to standard protocols (modified according to Valadi, H. et al. Nat. Cell Biol. 9, 654-659 (2007)). Following incubation of 5×10^7 lymphoma cells for 48 h in complete exosome-free medium, cells and larger debris were removed by centrifugation for 10 min (10 min., 500 g, 4° C.). The supernatant was centrifuged again (20 min., 10000 g; 4° C.; Beckman L8-55 ultracentrifuge, rotor Ti32) to remove intermediate size particles. Subsequently the supernatant containing exosomes was filtered (0.22 μM Millex GP), and again centrifuged (240 min., 120 000 g, 4° C.; Beckman L8-55 ultracentrifuge, rotor Ti32) to obtain the exosome pellet, which was washed once in PBS, and finally resuspended in 50 μl PBS for further applications. Exosomes were quantified by measuring whole protein according to standard protocols (BioRad-DC-Protein-Assay), Western blot detecting flotillin-2 in comparison with whole cells or control exosome preparations, and acetyl-cholin-esterase (AChE) activity as previously described (Savina, A., Fader, C. M., Damiani, M. T., & Colombo, M. I. Traffic. 6, 131-143 (2005)).

lymphoma cells = assay: CDC susceptibility: inhibitors plus rituximab with 10% active human complement; type: cell-based; conditions: concomitant incubation with rituximab
Method: as §1
After 24 hours at 37° C., cell viability was determined in triplicates by […] staining as described before. The effect on viability was expressed as the ratio of values from treated versus untreated samples, i.e. specific viability=100× absorbance with antibody treatment/absorbance of untreated control. To detect complement decomposition of C3 in supernatant of exosome coupled to beads, monoclonal antibody 13/15 was coated onto 96-well Medisorp plates (NUNC, Medisorp, Thermo Fisher Scientific) blocked, and washed. Subsequently, appropriately diluted supernatant of exosome:bead complex samples were added to the plate for 60 minutes, washed, and incubated with rabbit anti-C3d for 60 min. After washing, finally anti-rabbit Fc conjugated to horseradish peroxidase (anti-rFc-HRP) was added for 60 minutes, before a further washing and addition of TMB substrate solution. Zymosan (Sigma) was used for maximal complement fixation as positive control, addition of beads without exosomes as negative control.

SMILES | ABCA3 expression (ABCA3) | exosome shedding / release (OCI-Ly1 lymphoma cells) | exosome shedding / release (OCI-Ly1 lymphoma cells; listed as Indometacin) | CDC susceptibility / cytolytic activity of rituximab (lymphoma cells) | CDC susceptibility / cytolytic activity of rituximab (lymphoma cells; listed as Indometacin) | exosome shedding / release (OCI-Ly1 lymphoma cells; listed as Rapamycin)
COc1ccc2c(c1)c(CC(=O)O)c(C)n2C(=O)c1ccc(Cl)cc1 [indometacin] | decrease of transporter expression; also recorded: strongly diminished ABCA3 expression | impeded exosome release; also recorded: efficiently suppressed exosome release | Inhibition of Exosome Shedding | sensitized the lymphoma cells to rituximab-mediated CDC | Enhanced CDC Susceptibility | –
CO[C@H]1C[C@@H]2CC[C@@H](C)[C@@](O)(O2)C(=O)C(=O)N2CCCC[C@H]2C(=O)O[C@H]([C@H](C)C[C@@H]2CC[C@@H](O)[C@H](OC)C2)CC(=O)[C@H](C)/C=C(\C)[C@@H](O)[C@@H](OC)C(=O)[C@H](C)C[C@H](C)/C=C/C=C/C=C/1C [rapamycin] | decrease of transporter expression | efficiently suppressed exosome release | – | Enhanced CDC Susceptibility | – | Inhibition of Exosome Shedding
